# Test: peptide made by a vendor (peptide synthesis; Rink amide resin)
# Conditions: whole synthesis, triacetate salt
Substance,final purity (method not given) (HPLC) [%],final HPLC purity (TFA salts) [%]
-CQIWKQKPDLC--,>97,–
n′-CLDPKQKWIQC-c′,–,>90

# Reference: patent publication US7989466B2 (Cambridge Enterprise Limited, priority 1999, dated 2011)
